# At least one structure is not confirmed: it was looked up by name or label, or the drawing left a doubt.
# Test system: NCAM PSA-immunoreactive neurons, dentate granule cell layer/hilar border
# Test: NCAM PSA expression in hippocampal dentate gyrus after chronic administration
# Format: in vivo, rat
# Conditions: versus vehicle-treated control
# Protocol: Experimentally naïve postnatal day 80 (at the time of NCAM-PSA assessment) male Wistar rats were employed in all studies. All animals were housed singly and maintained at 22±2° C. on a standard 12 h-light/dark cycle with food and water available ad libitum. Animals were introduced to the experimental holding rooms at least 3 days prior to the commencement of any study.
# Freshly dissected whole rat brain was carefully coated in optimum cutting temperature (OCT) compound and lowered into a Cryoprep freezing apparatus containing dry-ice-cooled n-hexane. The function of the OCT compound and n-hexane was to provide an even freezing of the tissue, thus avoiding freezing artefacts. […]
# Horizontal cryosections were cut from the frozen tissue at various levels with reference to Bregma (see above), these were thaw-mounted onto glass slides, which were coated with poly-1-lysine diluted 1:1 in dH2O, and immersion fixed for 30 minutes with 70% ethanol. […] Following the second incubation, the sections ware again washed twice for ten minutes each in PBS, mounted in the fluorescence enhancing medium Citifluor® and observed for fluorescence with a Leitz DM RB fluorescent microscope.
# Quantitative image analysis was performed using the Leica Quantimet 500®, a P.C.-based software package, which was connected to the fluorescence microscope with a high sensitivity CCD video camera. […]
structure (smiles),measurement,value
"CN1CCN(C2=Nc3cc(Cl)ccc3Nc3ccccc32)CC1 [clozapine, reference compound]",effect on frequency of polysialylated neurons in the subventricular zone of the rat hippocampal dentate gyrus,not observed
